Source: paper PMC12670160, “A drug-repurposing screen of FDA- and EMA-approved drugs identifies two NF-κB inhibitors active against eumycetoma” (Journal of Antimicrobial Chemotherapy, 2025)
Structures can show the parent of a compound that is named as a salt. Out of some 5,300 compounds screened, about 130 (2.5%) showed an effect of 50% or more. The list shows a part of the results.

What follows are compounds tested on M. mycetomatis strain mm55. Details: primary screen, metabolic activity vs growth control; 96 h, 2 µM; inhibitor.

| SMILES | % viability [%] |
| --- | --- |
| Oc1c(I)cc(I)c2cccnc12 [ONC0000463, iodoquinol] | 67.55 |
| C[C@@]1(F)[C@H](O)[C@@H](CO)O[C@H]1n1ccc(N)nc1=O [ONC0000911, psi6130] | 79.14 |
| Cc1nc2c(c(=O)[nH]1)CSCC2 [ONC0003611, dr2313] | 76.12 |
| O=C(CCCN1CC=C(n2c(=O)[nH]c3ccccc32)CC1)c1ccc(F)cc1 [ONC0003169, droperidol] | 91.94 |
| O=C(NO)c1ccc2[nH]c(=O)c(CCCc3ccccc3)nc2c1 [ONC0001692, tcs2210] | 50.56 |
| CCN(CC)CCNC(=O)c1cc(S(C)(=O)=O)ccc1OC [ONC0003135, tiapride hydrochloride] | 96.45 |
| CCn1cc(C(=O)O)c(=O)c2ccc(C)nc21 [ONC0000701, nalidixic acid] | 101.8 |
| COc1ccc(-c2oc3c(CC=C(C)C)c(O[C@@H]4O[C@H](CO)[C@@H](O)[C@H](O)[C@H]4O)cc(O)c3c(=O)c2O[C@@H]2O[C@@H](C)[C@H](O)[C@@H](O)[C@H]2O)cc1 [ONC0004644, icariin] | 67.65 |
| C[C@H]1[C@@H](O)O[C@@H]2O[C@@]3(C)CC[C@H]4[C@H](C)CC[C@@H]1[C@@]24OO3 [ONC0002456, artenimol] | 93.7 |
| Cc1cc(C)cc(C(=O)N(C)[C@H](Cc2ccc(-c3ccccc3)cc2)C(=O)N[C@@H](Cc2c[nH]c3ccccc23)C(=O)O)c1 [ONC0002527, irl2500] | 56 |
| CCCCCC(C)N (stereo not drawn) [ONC0003207, tuaminoheptane sulfate] | 110.6 |
| Cc1cccc(/C=C/c2ccccc2)n1 [ONC0001321, sib1893] | 87.7 |
| O=C(O)CCC(=O)OC[C@@H](NC(=O)C(Cl)Cl)[C@H](O)c1ccc([N+](=O)[O-])cc1 [ONC0000292, chloramphenicol sodium succinate] | 103 |
| COc1ccc2cc(CCC(C)=O)ccc2c1 [ONC0002389, nabumetone] | 70.8 |
| Cc1cc(C)c(N)c(C#Cc2cccc(F)c2)n1 [ONC0003034, adx10059] | 89.6 |
| CN(C)c1ccc(C(=O)NCCCCCCC(=O)NO)cc1 [ONC0005280, m344] | 132.9 |
| O=C(N[C@H](Cc1ccccc1)C(=O)O)c1sc2cc(F)ccc2c1Cl [ONC0000057, cucpt4a] | 102.7 |
| C#CCN(C)Cc1ccccc1 [ONC0000568, pargyline hydrochloride] | 78.15 |

2 successive records out of the list so far, for reference:

| SMILES | % viability [%] |
| --- | --- |
| O=C(O)CCC(=O)OC[C@@H](NC(=O)C(Cl)Cl)[C@H](O)c1ccc([N+](=O)[O-])cc1 [ONC0000292, chloramphenicol sodium succinate] | 103 |
| COc1ccc2cc(CCC(C)=O)ccc2c1 [ONC0002389, nabumetone] | 70.8 |
